Paper PMC5386714
Results are given in words; binding and its absence hold for the method and conditions named. For part of these data: Binding seen in cells or lysates may run through a third protein. Some entries that bind do so weakly or less than the wild type.

What was measured:
[1] = target: T1, kinesin family member 4A (KIF4A), endogenous (human (endogenous in A549, HeLa)) (UniProt O95239); test: co-IP; endogenous proteins in A549 cells, immunoprecipitation with anti-PHF14 and reciprocally with anti-KIF4A antibodies; ethidium bromide in the IP buffer
T1 sequence: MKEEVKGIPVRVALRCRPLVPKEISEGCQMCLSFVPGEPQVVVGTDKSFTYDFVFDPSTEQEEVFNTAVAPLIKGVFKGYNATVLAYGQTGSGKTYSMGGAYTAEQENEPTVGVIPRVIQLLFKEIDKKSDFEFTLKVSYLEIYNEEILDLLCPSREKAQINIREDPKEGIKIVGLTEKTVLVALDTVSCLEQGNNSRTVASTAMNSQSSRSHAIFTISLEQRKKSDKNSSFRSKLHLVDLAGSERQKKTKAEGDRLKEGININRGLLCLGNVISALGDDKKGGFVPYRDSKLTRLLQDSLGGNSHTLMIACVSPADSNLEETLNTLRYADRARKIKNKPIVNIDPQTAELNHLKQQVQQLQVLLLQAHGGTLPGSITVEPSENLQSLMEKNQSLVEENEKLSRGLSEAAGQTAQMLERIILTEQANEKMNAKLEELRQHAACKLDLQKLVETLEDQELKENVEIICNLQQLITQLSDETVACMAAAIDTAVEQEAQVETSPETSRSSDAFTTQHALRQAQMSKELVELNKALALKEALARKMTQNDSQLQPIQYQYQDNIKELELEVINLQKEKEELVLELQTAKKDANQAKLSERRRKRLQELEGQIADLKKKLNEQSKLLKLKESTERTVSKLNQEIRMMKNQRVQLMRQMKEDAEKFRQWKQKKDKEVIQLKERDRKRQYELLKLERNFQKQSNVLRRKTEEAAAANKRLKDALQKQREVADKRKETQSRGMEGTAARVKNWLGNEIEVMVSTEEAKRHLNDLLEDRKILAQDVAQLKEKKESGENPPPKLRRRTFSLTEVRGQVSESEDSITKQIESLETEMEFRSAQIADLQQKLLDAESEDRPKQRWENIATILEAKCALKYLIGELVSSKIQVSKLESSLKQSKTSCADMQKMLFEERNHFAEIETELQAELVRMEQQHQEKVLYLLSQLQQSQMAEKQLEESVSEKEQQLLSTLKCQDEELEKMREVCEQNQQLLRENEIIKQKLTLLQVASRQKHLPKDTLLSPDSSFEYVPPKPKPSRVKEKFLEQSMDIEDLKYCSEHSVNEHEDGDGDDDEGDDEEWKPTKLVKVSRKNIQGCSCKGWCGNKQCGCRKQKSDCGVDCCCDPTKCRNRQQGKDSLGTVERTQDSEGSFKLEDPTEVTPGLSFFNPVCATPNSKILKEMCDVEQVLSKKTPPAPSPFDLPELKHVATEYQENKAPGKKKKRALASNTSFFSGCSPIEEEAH

[2] = target: T2, PHD finger protein 14 (PHF14), endogenous (human (endogenous in A549, HeLa, 293T)) (UniProt O94880); test: SEC; FPLC gel filtration of HeLa nuclear extract (50 mM Tris-HCl pH8.0, 0.3 M NaCl, 1 mM EDTA) on HiLoad 16/60 Superdex 200, eluted with PBS; fractions analysed by western blotting
T2 sequence: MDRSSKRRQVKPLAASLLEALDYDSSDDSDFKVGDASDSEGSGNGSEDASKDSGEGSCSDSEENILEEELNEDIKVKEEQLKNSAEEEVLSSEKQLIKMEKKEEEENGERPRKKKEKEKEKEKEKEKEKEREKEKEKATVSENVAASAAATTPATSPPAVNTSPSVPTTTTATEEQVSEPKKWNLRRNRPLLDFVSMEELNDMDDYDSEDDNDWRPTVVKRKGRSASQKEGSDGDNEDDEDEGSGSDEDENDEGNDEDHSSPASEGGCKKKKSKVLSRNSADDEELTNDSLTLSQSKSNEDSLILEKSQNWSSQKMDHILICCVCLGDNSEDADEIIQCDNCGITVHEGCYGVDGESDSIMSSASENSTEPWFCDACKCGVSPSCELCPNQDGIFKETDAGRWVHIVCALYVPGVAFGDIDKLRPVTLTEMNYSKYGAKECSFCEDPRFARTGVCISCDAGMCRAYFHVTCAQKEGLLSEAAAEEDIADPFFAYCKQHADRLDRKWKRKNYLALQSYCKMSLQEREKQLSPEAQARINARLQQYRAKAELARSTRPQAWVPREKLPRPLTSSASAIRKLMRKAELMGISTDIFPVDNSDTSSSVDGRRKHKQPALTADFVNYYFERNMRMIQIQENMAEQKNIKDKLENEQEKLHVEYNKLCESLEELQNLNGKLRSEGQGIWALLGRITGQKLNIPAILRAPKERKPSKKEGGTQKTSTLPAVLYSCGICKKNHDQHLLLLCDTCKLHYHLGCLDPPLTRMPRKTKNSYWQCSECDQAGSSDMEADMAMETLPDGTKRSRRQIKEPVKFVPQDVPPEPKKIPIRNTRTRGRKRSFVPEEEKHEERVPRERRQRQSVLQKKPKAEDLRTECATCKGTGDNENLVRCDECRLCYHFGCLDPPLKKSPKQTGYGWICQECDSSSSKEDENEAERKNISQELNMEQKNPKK

[3] = target: T2, PHD finger protein 14 (PHF14), endogenous (human (endogenous in A549, HeLa, 293T)); test: co-IP; endogenous proteins in A549 cells, immunoprecipitation with anti-PHF14 and reciprocally with anti-KIF4A antibodies; ethidium bromide in the IP buffer

Binder | binding [1] | binding [2] | binding [3]
PHD finger protein 14 (PHF14), endogenous (protein, UniProt O94880 1-948) MDRSSKRRQVKPLAASLLEALDYDSSDDSDFKVGDASDSEGSGNGSEDASKDSGEGSCSDSEENILEEELNEDIKVKEEQLKNSAEEEVLSSEKQLIKMEKKEEEENGERPRKKKEKEKEKEKEKEKEKEREKEKEKATVSENVAASAAATTPATSPPAVNTSPSVPTTTTATEEQVSEPKKWNLRRNRPLLDFVSMEELNDMDDYDSEDDNDWRPTVVKRKGRSASQKEGSDGDNEDDEDEGSGSDEDENDEGNDEDHSSPASEGGCKKKKSKVLSRNSADDEELTNDSLTLSQSKSNEDSLILEKSQNWSSQKMDHILICCVCLGDNSEDADEIIQCDNCGITVHEGCYGVDGESDSIMSSASENSTEPWFCDACKCGVSPSCELCPNQDGIFKETDAGRWVHIVCALYVPGVAFGDIDKLRPVTLTEMNYSKYGAKECSFCEDPRFARTGVCISCDAGMCRAYFHVTCAQKEGLLSEAAAEEDIADPFFAYCKQHADRLDRKWKRKNYLALQSYCKMSLQEREKQLSPEAQARINARLQQYRAKAELARSTRPQAWVPREKLPRPLTSSASAIRKLMRKAELMGISTDIFPVDNSDTSSSVDGRRKHKQPALTADFVNYYFERNMRMIQIQENMAEQKNIKDKLENEQEKLHVEYNKLCESLEELQNLNGKLRSEGQGIWALLGRITGQKLNIPAILRAPKERKPSKKEGGTQKTSTLPAVLYSCGICKKNHDQHLLLLCDTCKLHYHLGCLDPPLTRMPRKTKNSYWQCSECDQAGSSDMEADMAMETLPDGTKRSRRQIKEPVKFVPQDVPPEPKKIPIRNTRTRGRKRSFVPEEEKHEERVPRERRQRQSVLQKKPKAEDLRTECATCKGTGDNENLVRCDECRLCYHFGCLDPPLKKSPKQTGYGWICQECDSSSSKEDENEAERKNISQELNMEQKNPKK | binds |  | 
kinesin family member 4A (KIF4A), endogenous (protein, UniProt O95239 1-1232) MKEEVKGIPVRVALRCRPLVPKEISEGCQMCLSFVPGEPQVVVGTDKSFTYDFVFDPSTEQEEVFNTAVAPLIKGVFKGYNATVLAYGQTGSGKTYSMGGAYTAEQENEPTVGVIPRVIQLLFKEIDKKSDFEFTLKVSYLEIYNEEILDLLCPSREKAQINIREDPKEGIKIVGLTEKTVLVALDTVSCLEQGNNSRTVASTAMNSQSSRSHAIFTISLEQRKKSDKNSSFRSKLHLVDLAGSERQKKTKAEGDRLKEGININRGLLCLGNVISALGDDKKGGFVPYRDSKLTRLLQDSLGGNSHTLMIACVSPADSNLEETLNTLRYADRARKIKNKPIVNIDPQTAELNHLKQQVQQLQVLLLQAHGGTLPGSITVEPSENLQSLMEKNQSLVEENEKLSRGLSEAAGQTAQMLERIILTEQANEKMNAKLEELRQHAACKLDLQKLVETLEDQELKENVEIICNLQQLITQLSDETVACMAAAIDTAVEQEAQVETSPETSRSSDAFTTQHALRQAQMSKELVELNKALALKEALARKMTQNDSQLQPIQYQYQDNIKELELEVINLQKEKEELVLELQTAKKDANQAKLSERRRKRLQELEGQIADLKKKLNEQSKLLKLKESTERTVSKLNQEIRMMKNQRVQLMRQMKEDAEKFRQWKQKKDKEVIQLKERDRKRQYELLKLERNFQKQSNVLRRKTEEAAAANKRLKDALQKQREVADKRKETQSRGMEGTAARVKNWLGNEIEVMVSTEEAKRHLNDLLEDRKILAQDVAQLKEKKESGENPPPKLRRRTFSLTEVRGQVSESEDSITKQIESLETEMEFRSAQIADLQQKLLDAESEDRPKQRWENIATILEAKCALKYLIGELVSSKIQVSKLESSLKQSKTSCADMQKMLFEERNHFAEIETELQAELVRMEQQHQEKVLYLLSQLQQSQMAEKQLEESVSEKEQQLLSTLKCQDEELEKMREVCEQNQQLLRENEIIKQKLTLLQVASRQKHLPKDTLLSPDSSFEYVPPKPKPSRVKEKFLEQSMDIEDLKYCSEHSVNEHEDGDGDDDEGDDEEWKPTKLVKVSRKNIQGCSCKGWCGNKQCGCRKQKSDCGVDCCCDPTKCRNRQQGKDSLGTVERTQDSEGSFKLEDPTEVTPGLSFFNPVCATPNSKILKEMCDVEQVLSKKTPPAPSPFDLPELKHVATEYQENKAPGKKKKRALASNTSFFSGCSPIEEEAH |  | binds | binds
